From ChEMBL document CHEMBL3988442, “University of Dundee, Small-Polar-MMV Screening Library” (2021).

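Whole-cell assay for inhibitors of Mycobacterium tuberculosis growth, labelled Cornell in the record; the read-out is not stated. The concentration is filed as 10 mM, unlikely as a test dose, so the dose is not known. The record gives no direction; compounds strong in two other growth screens of this library score well above the rest, so higher reads as stronger inhibition. About 53,000 compounds were tested under these conditions; 1.7% (about 900) showed 50% or more at least once.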

The filed quantity is “Percent Effect” (%).
The controls that fix the scale are not given in the record; negative values are as filed.
This is an unselected part of the compounds tested.

Compound	effect
O=S(=O)(C1CC1)N1CC[C@]2(C[C@@H](OCC3CCOCC3)CO2)C1	-2.811
CC(C)(C)CC(=O)NCC(=O)Nc1ccn(Cc2cccnc2)n1	21.8
C1CC(NCc2nc(C3CC3)no2)CN(Cc2noc(C3CC3)n2)C1 (stereo not shown)	-11.93
CC(CNCC1(S(C)(=O)=O)CCOCC1)c1ccc(F)cc1 (stereo not shown)	-36.99
COC(=O)CNC(=O)CCc1cc(Br)cs1	26.61
CN(C)C(=O)CN1CCc2ncnc(N(C)C)c2CC1.O=C(O)C(F)(F)F	-3.852
CC(C)N(C)Cc1nnc2n1CCCN(C(=O)C1CCCO1)C2 (stereo not shown)	23.11
Cn1c(CC2CCS(=O)(=O)C2)nnc1SCCOc1ccccc1F (stereo not shown)	1.034
[H][C@]12CCN(C(=O)c3ccoc3)[C@@]1([H])CC[C@@H](COCc1ccccn1)O2	0.4514
CN(C)C(=O)c1ccc2c(c1)N(C)C(CC(=O)NCCOCCO)CO2 (stereo not shown)	-15.28
CCc1ccc(CNC(=O)Cn2ccc3sccc3c2=O)cc1	23.84
COc1cccc(CNC(=O)Nc2ccc3[nH]nnc3c2)c1OC	24.4
Cc1cc(C)cc(C(=O)Nc2cccc(CN3CCCC3C(N)=O)c2)c1 (stereo not shown)	-46.69
Cc1nc(CN(C)CC2CCCN(CCc3ccc(Cl)cc3)C2)no1 (stereo not shown)	14.61
CC(=O)N1CCC(NC2(Cc3cc(CC(C)C)on3)COC2)CC1	-7.192
Oc1ccc(N2CCN(Cc3ccc(F)cc3Br)CC2)cc1	105.2
[H][C@]12CC[C@]([H])(CN(Cc3c(C)noc3C)C1)N(Cc1cc(F)cc(F)c1)C2	-0.4652
Cc1ccnc(NC(=O)C2CCN(CCCc3cn[nH]c3)CC2)c1	23.72
COc1cccc(C(=O)NCC2CCN(C(=O)c3ccoc3)CC2)c1	11.52
Cc1noc(CCCC(=O)N(CCC(=O)O)Cc2ccc(F)c(F)c2)n1	14.65
CN1CCCC(c2cccc(Cc3ccccc3Cl)n2)C1 (stereo not shown)	12.68
[H][C@@]12C[C@H](C(=O)NC(C)C)[C@@]([H])(CN(C(=O)NCc3ccccc3)C1)O2	12.32
CC(=O)N1CCCN(C2CCCCc3ccccc32)CC1 (stereo not shown)	-4.173
CCC1CN(CC(=O)NCCN(CC)CC)c2ccccc2S1 (stereo not shown)	30.35
CC(=O)N1CCc2c(nc(-c3cccnc3)nc2N(C)CC(O)CO)C1 (stereo not shown)	9.119
CS(=O)(=O)c1ccc(-c2cnc(C3CCCN3)cn2)cc1.Cl (stereo not shown)	17.1
COc1c[nH]c(C(=O)N2CCN(c3cccc(Cl)c3)CC2)cc1=O	26.78
O=C(c1ccoc1)N(Cc1ccncc1)C1CC1	9.363
COc1c(CNCc2ccc3c(c2)OCCO3)c(C(C)C)nn1C	-1.154
O=C(CN1CCN(c2ccc3nncn3n2)CC1)NC1CCCC1	0.01617
CCN1CCCC1CN(CCN(C)C)S(=O)(=O)c1ccc(C#N)cc1 (stereo not shown)	-37.37
CN(C)S(=O)(=O)N1CC[C@]2(C[C@H](Oc3ncccc3F)CO2)C1.O=C(O)C(F)(F)F	10.87

Some entries from above, unchanged:

Compound,effect
[H][C@]12CC[C@]([H])(CN(Cc3c(C)noc3C)C1)N(Cc1cc(F)cc(F)c1)C2,-0.4652
COc1c[nH]c(C(=O)N2CCN(c3cccc(Cl)c3)CC2)cc1=O,26.78